Assay results reported in publication PMC12583701.
Where two headings read alike, the source gives them in different places. Results are given in words; binding and its absence hold for the method and conditions named. In cells and extracts the contact can be indirect. Some entries that bind do so weakly or less than the wild type. Blank lines part the entries; values can stand above or below the molecule they belong to.

Sequences of proteins named here, by UniProt entry; tags and fusion partners are left off. A change or cut given only in a name is not applied to a line headed by its entry.
UniProt Q8VI36: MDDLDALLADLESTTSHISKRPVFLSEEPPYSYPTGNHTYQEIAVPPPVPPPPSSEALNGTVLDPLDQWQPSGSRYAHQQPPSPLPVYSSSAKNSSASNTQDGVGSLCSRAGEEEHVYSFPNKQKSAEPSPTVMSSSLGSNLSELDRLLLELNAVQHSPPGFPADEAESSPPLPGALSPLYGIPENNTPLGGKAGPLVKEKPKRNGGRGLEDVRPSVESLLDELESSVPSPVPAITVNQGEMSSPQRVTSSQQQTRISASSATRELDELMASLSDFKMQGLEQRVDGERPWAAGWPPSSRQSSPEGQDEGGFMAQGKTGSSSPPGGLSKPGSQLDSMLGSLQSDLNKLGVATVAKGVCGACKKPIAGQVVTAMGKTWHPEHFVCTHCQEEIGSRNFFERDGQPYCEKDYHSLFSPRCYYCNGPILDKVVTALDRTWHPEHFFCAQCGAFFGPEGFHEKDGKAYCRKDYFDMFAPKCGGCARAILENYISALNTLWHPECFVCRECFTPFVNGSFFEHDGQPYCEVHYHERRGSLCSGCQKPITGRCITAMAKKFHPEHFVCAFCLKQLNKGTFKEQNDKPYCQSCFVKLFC
UniProt P49024: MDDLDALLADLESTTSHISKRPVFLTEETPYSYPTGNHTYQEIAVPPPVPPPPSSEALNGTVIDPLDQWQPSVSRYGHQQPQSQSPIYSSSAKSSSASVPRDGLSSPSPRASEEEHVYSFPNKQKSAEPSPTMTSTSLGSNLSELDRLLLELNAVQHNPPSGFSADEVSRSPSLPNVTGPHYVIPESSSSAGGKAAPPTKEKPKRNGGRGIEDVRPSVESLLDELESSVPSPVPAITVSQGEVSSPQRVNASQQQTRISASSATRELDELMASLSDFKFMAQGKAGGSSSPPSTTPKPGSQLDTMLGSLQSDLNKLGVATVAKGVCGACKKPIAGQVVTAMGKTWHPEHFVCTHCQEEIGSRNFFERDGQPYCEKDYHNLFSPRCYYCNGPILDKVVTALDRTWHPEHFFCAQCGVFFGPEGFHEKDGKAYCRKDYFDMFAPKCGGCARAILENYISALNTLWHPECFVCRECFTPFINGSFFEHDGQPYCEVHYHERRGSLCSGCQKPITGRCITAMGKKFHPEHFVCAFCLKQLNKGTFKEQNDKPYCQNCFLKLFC
UniProt P26369: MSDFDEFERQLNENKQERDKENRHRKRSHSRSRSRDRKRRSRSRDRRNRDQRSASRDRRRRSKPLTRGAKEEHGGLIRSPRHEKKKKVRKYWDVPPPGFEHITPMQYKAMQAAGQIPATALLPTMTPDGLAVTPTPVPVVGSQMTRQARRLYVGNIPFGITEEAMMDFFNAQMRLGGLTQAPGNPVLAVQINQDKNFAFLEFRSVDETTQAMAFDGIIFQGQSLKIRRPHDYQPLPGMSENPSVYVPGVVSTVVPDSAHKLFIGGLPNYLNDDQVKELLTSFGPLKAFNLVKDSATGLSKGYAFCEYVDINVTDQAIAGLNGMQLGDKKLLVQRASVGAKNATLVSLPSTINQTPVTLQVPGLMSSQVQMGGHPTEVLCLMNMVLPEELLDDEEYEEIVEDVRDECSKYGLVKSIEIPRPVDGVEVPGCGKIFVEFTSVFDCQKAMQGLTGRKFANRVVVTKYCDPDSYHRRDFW
UniProt O09032: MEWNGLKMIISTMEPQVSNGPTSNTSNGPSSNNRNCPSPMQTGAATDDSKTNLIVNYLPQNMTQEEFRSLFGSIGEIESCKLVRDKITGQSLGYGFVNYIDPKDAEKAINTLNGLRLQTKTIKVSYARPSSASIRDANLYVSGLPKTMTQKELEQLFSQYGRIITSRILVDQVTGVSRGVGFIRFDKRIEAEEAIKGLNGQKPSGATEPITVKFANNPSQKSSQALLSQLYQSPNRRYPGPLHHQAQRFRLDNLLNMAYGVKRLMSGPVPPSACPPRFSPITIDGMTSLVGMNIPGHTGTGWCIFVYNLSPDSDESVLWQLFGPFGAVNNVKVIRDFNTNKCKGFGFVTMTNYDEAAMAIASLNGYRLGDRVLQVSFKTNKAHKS
UniProt Q61701: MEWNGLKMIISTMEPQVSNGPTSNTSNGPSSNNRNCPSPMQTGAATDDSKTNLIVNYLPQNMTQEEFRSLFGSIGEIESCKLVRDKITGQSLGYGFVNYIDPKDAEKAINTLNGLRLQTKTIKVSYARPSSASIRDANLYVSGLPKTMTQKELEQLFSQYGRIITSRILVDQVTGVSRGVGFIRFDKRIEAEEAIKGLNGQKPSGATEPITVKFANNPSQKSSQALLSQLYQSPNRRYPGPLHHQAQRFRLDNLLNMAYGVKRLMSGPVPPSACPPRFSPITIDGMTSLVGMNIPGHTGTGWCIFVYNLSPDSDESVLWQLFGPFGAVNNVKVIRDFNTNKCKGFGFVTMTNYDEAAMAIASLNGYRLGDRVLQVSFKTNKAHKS
UniProt F2Z3T9: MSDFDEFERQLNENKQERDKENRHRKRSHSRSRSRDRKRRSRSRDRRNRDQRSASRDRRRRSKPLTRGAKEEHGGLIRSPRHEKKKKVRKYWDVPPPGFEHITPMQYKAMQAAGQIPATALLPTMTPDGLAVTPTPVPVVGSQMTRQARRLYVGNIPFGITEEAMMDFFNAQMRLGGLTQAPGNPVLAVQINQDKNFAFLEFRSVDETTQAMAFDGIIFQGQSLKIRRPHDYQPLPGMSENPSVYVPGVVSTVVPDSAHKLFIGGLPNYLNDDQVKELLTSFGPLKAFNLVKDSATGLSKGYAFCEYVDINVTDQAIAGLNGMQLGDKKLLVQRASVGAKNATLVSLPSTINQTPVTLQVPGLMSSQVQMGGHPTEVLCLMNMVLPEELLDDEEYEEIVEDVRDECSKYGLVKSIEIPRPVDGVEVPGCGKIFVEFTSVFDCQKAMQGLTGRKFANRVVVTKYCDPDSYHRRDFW
UniProt O88477: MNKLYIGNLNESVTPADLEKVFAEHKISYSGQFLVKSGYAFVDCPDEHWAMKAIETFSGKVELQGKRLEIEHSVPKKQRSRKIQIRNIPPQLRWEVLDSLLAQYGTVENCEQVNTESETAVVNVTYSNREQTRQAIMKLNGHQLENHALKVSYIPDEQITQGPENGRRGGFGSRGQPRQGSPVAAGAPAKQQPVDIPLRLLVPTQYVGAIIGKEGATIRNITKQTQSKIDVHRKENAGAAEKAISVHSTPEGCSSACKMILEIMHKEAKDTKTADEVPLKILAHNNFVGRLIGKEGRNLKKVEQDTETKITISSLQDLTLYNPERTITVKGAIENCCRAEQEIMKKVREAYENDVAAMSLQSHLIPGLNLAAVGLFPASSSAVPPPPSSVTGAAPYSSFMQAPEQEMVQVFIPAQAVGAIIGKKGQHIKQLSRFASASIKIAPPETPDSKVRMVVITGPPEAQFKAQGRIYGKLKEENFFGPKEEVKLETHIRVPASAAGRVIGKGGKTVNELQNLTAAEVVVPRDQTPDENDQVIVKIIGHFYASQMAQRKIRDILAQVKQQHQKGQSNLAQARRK

Tests used:
[1] = molecular target: paxillin (endogenous, brain lysate) (mouse (endogenous in brain)) (UniProt Q8VI36); assay: co-IP; paxillin immunoprecipitated from P7 and P15 brain lysate; immunoblot of co-precipitated proteins
[2] = molecular target: paxillin (endogenous, rat primary neurons) (rat (endogenous in primary neuronal cultures)) (UniProt Q66H76); assay: co-IP; paxillin immunoprecipitated from lysates of DIV7 primary neuronal cultures (control, BDNF 20 ng/ml 2 h, or IPZ 5 μM 16 h then BDNF); immunoblot of co-precipitated proteins
[3] = molecular target: FLAG-tagged paxillin S119A (phospho-deficient) (UniProt P49024); assay: co-IP; anti-FLAG immunoprecipitation of lysates of Neuro2a cells transfected with FLAG-tagged paxillin variants, in the presence of forskolin; immunoblot of endogenous partners
[4] = molecular target: FLAG-tagged wild-type paxillin (UniProt P49024); assay: as above
[5] = molecular target: FLAG-tagged paxillin S119A (phospho-deficient) (UniProt P49024); assay: as above; remark: listed apart in the source
[6] = molecular target: FLAG-tagged wild-type paxillin (UniProt P49024); assay: as above; remark: listed apart in the source
[7] = molecular target: paxillin (endogenous, rat primary neurons) (rat (endogenous in primary neuronal cultures)) (UniProt Q66H76); assay: co-IP; paxillin immunoprecipitated from lysates of DIV7 primary neuronal cultures (control, BDNF 20 ng/ml 2 h, or IPZ 5 μM 16 h then BDNF); immunoblot of co-precipitated proteins; remark: listed apart in the source
[8] = molecular target: FLAG-tagged paxillin S119D (phosphomimetic) (UniProt P49024); assay: co-IP; anti-FLAG immunoprecipitation of lysates of Neuro2a cells transfected with FLAG-tagged paxillin variants, in the presence of forskolin; immunoblot of endogenous partners

Molecule: U2AF2 (mouse) (from UniProt P26369 1-475)
binding [1]: binds

Molecule: ELAVL4 (rat) (from UniProt O09032 1-385)
binding [2]: binds

Molecule: ELAVL4 (mouse) (from UniProt Q61701 1-385)
binding [1]: binds
binding [3]: binds
binding [4]: binds

Molecule: U2AF2 (rat) (from UniProt F2Z3T9 1-475)
binding [2]: binds

Molecule: IGF2BP1 (from UniProt O88477 1-577)
binding [3]: binds
binding [4]: binds

Molecule: HNRNPK (mouse) (from UniProt P61979 1-463)
binding [1]: binds

B5: NOVA1 (protein, UniProt Q80WA4 1-474)
chain: MAAAPIQQNGTHTGVPIDLDPPDSRKRPLEAPPEAGSTKRTNTGEDGQYFLKVLIPSYAAGSIIGKGGQTIVQLQKETGATIKLSKSKDFYPGTTERVCLIQGTIEALNAVHGFIAEKIREMPQNVAKTEPVSILQPQTTVNPDRIKQVKIIVPNSTAGLIIGKGGATVKAIMEQSGAWVQLSQKPDGINLQERVVTVSGEPEQNRKAVELIIQKIQEDPQSGSCLNISYANVTGPVANSNPTGFPYANTAEVLPTAAAAAGLLGHANLAGVAAFPAVLSGFTGNDLVAITSALNTLASYGYNLNTLGLGLSQAAATGALAAAAASANPAAAAANLLATYASEASASGSTAGGTAGTFALGSLAAATAATNGYFGAASPLAASAILGTEKSTDGSKDVVEIAVPENLVGAILGKGGKTLVEYQELTGARIQISKKGEFVPGTRNRKVTITGTPAATQAAQYLITQRITYEQGVR
binding [7]: binds

B6: SF1 (mouse) (protein, UniProt Q64213 1-653)
chain: MATGANATPLDFPSKKRKRSRWNQDTMEQKTVIPGMPTVIPPGLTREQERAYIVQLQIEDLTRKLRTGDLGIPPNPEDRSPSPEPIYNSEGKRLNTREFRTRKKLEEERHTLITEMVALNPDFKPPADYKPPATRVSDKVMIPQDEYPEINFVGLLIGPRGNTLKNIEKECNAKIMIRGKGSVKEGKVGRKDGQMLPGEDEPLHALVTANTMENVKKAVEQIRNILKQGIETPEDQNDLRKMQLRELARLNGTLREDDNRILRPWQSSETRSITNTTVCTKCGGAGHIASDCKFQRPGDPQSAQDKARMDKEYLSLMAELGEAPVPASVGSTSGPATTPLASAPRPAAPASNPPPPSLMSTTQSRPPWMNSGPSENRPYHGMHGGGPGGPGGGPHSFPHPLPSLTGGHGGHPMQHNPNGPPPPWMQPPPPPMNQGPHPPGHHGPPPMDQYLGSTPVGSGVYRLHQGKGMMPPPPMGMMPPPPPPPSGQPPPPPSGPLPPWQQQQQQPPPPPPPSSSMASSTPLPWQQNTTTTTTSAGTGSIPPWQQQQAAAAASPGTPQMQGNPTMVPLPPGVQPPLPPGAPPPPPCSIECLLCLLSSPNSLCLSPNRAARIPPRGSDGPSHESEDFPRPLVTLPGRQPQQRPWWTGWFGKAA
binding [1]: binds

Further lines, results first:

binding [2]: binds
Molecule: HNRNPK (rat) (from UniProt P61980 1-463)

binding [5]: binds
binding [6]: binds
B1: SF3B1 (protein, UniProt Q99NB9 1-1304)
chain: MAKIAKTHEDIEAQIREIQGKKAALDEAQGVGLDSTGYYDQEIYGGSDSRFAGYVTSIAATELEDDDDDYSSSTSLLGQKKPGYHAPVALLNDIPQSTEQYDPFAEHRPPKIADREDEYKKHRRTMIISPERLDPFADGGKTPDPKMNARTYMDVMREQHLTKEEREIRQQLAEKAKAGELKVVNGAAASQPPSKRKRRWDQTADQTPGATPKKLSSWDQAETPGHTPSLRWDETPGRAKGSETPGATPGSKIWDPTPSHTPAGAATPGRGDTPGHATPGHGGATSSARKNRWDETPKTERDTPGHGSGWAETPRTDRGGDSIGETPTPGASKRKSRWDETPASQMGGSTPVLTPGKTPIGTPAMNMATPTPGHIMSMTPEQLQAWRWEREIDERNRPLSDEELDAMFPEGYKVLPPPAGYVPIRTPARKLTATPTPLGGMTGFHMQTEDRTMKSVNDQPSGNLPFLKPDDIQYFDKLLVDVDESTLSPEEQKERKIMKLLLKIKNGTPPMRKAALRQITDKAREFGAGPLFNQILPLLMSPTLEDQERHLLVKVIDRILYKLDDLVRPYVHKILVVIEPLLIDEDYYARVEGREIISNLAKAAGLATMISTMRPDIDNMDEYVRNTTARAFAVVASALGIPSLLPFLKAVCKSKKSWQARHTGIKIVQQIAILMGCAILPHLRSLVEIIEHGLVDEQQKVRTISALAIAALAEAATPYGIESFDSVLKPLWKGIRQHRGKGLAAFLKAIGYLIPLMDAEYANYYTREVMLILIREFQSPDEEMKKIVLKVVKQCCGTDGVEANYIKTEILPPFFKHFWQHRMALDRRNYRQLVDTTVELANKVGAAEIISRIVDDLKDEAEQYRKMVMETIEKIMGNLGAADIDHKLEEQLIDGILYAFQEQTTEDSVMLNGFGTVVNALGKRVKPYLPQICGTVLWRLNNKSAKVRQQAADLISRTAVVMKTCQEEKLMGHLGVVLYEYLGEEYPEVLGSILGALKAIVNVIGMHKMTPPIKDLLPRLTPILKNRHEKVQENCIDLVGRIADRGAEYVSAREWMRICFELLELLKAHKKAIRRATVNTFGYIAKAIGPHDVLATLLNNLKVQERQNRVCTTVAIAIVAETCSPFTVLPALMNEYRVPELNVQNGVLKSLSFLFEYIGEMGKDYIYAVTPLLEDALMDRDLVHRQTASAVVQHMSLGVYGFGCEDSLNHLLNYVWPNVFETSPHVIQAVMGALEGLRVAIGPCRMLQYCLQGLFHPARKVRDVYWKIYNSIYIGSQDALIAHYPRIYNDDKNTYIRYDLDYIL

binding [1]: binds
binding [5]: binds
binding [6]: binds
B2: U2AF1 (mouse) (protein, UniProt Q9D883 1-239)
chain: MAEYLASIFGTEKDKVNCSFYFKIGACRHGDRCSRLHNKPTFSQTIALLNIYRNPQNSSQSADGLRCAVSDVEMQEHYDEFFEEVFTEMEEKYGEVEEMNVCDNLGDHLVGNVYVKFRREEDAEKAVIDLNNRWFNGQPIHAELSPVTDFREACCRQYEMGECTRGGFCNFMHLKPISRELRRELYGRRRKKHRSRSRSRERRSRSRDRGRGGGGGGGGGGGRERDRRRSRDRERSGRF

binding [7]: binds
B3: matrin3 (protein, UniProt P43244 1-845)
chain: MSKSFQQSSLGRDSQGHGRDLSAAGIGLLAAATQSLSMPASLGRMNQGTARLASLMNLGMSSSLNQQGAHSALSSASTSSHNLQSIFNIGSRGPLPLSSQHRGDTDQASNILASFGLSARDLDELSRYPEDKITPENLPQILLQLKRRRTEEGPTLSYGRDGRSATREPPYRVPRDDWEEKRHFRRDSFDDRGPSLNPVLDYDHGSRSQESGYYDRMDYEDDRLRDGERCRDDSFFGETSHNYHKFDSEYERMGRGPGPLQERSLFEKKRGAPPSSNIEDFHGLLPKGYPHLCSICDLPVHSNKEWSQHINGASHSRRCQLLLEIYPEWNPDNDTGHTMGDPFMLQQSTNPAPGILGPPPPSFHLGGPAVGPRGNLGAGNGNLQGPRHMQKGRVETSRVVHIMDFQRGKNLRYQLLQLVEPFGVISNHLILNKINEAFIEMATTEDAQAAVDYYTTTPALVFGKPVRVHLSQKYKRIKKPEGKPDEKFDQKQELGRVIHLSNLPHSGYSDSAVLKLAEPYGKIKNYILMRMKSQAFIEMETREDAMAMVDHCLKKALWFQGRCVKVDLSEKYKKLVLRIPNRGIDLLKKDKSRKRSYSPDGKESPSDKKSKTDGAQKTENPAEGKEQEEKSGEDGEKDTKDDQTEQEPSMLLESEDELLVDEEEAAALIESGSSVGDETDLANLGDVSSDGKKEPSDKAVKKDASATSKKKLKKVDKIEELDQENEAALENGIKNEENTEPGAESAENADDPNKDASDNSDGQNDENKEDYTIPDEYRIGPYQPNVPGGIDYVIPKTGFYCKLCSLFYTNEEVAKNTHCSSLPHYQKLKKFLNKLAEERRQKKES

binding [8]: binds
binding [6]: binds
B4: importin β2 (protein, UniProt Q8BFY9 1-898)
chain: MVWDRQTKMEYEWKPDEQGLQQILQLLKESQSPDTTIQRTVQQKLEQLNQYPDFNNYLIFVLTKLKSEDEPTRSLSGLILKNNVKAHFQNFPNGVTDFIKSECLNNIGDSSPLIRATVGILITTIASKGELQNWPDLLPKLCSLLDSEDYNTCEGAFGALQKICEDSAEILDSDVLDRPLNIMIPKFLQFFKHSSPKIRSHAVACVNQFIISRTQALMLHIDSFIENLFALAGDEEAEVRKNVCRALVMLLEVRMDRLLPHMHNIVEYMLQRTQDQDENVALEACEFWLTLAEQPICKDVLVRHLPKLIPVLVNGMKYSDIDIILLKGDVEEDETIPDSEQDIRPRFHRSRTVAQQHEEDGIEEEDDDDDEIDDDDTISDWNLRKCSAAALDVLANVYRDELLPHILPLLKELLFHHEWVVKESGILVLGAIAEGCMQGMIPYLPELIPHLIQCLSDKKALVRSITCWTLSRYAHWVVSQPPDTYLKPLMTELLKRILDSNKRVQEAACSAFATLEEEACTELVPYLAYILDTLVFAFSKYQHKNLLILYDAIGTLADSVGHHLNKPEYIQMLMPPLIQKWNMLKDEDKDLFPLLECLSSVATALQSGFLPYCEPVYQRCVNLVQKTLAQAMLNNAQPEQYEAPDKDFMIVALDLLSGLAEGLGGNIEQLVARSNILTLMYQCMQDKMPEVRQSSFALLGDLTKACFQHVKPCIADFMPILGTNLNPEFISVCNNATWAIGEISIQMGIEMQPYIPMVLHQLVEIINRPNTPKTLLENTAITIGRLGYVCPQEVAPMLQQFIRPWCTSLRNIRDNEEKDSAFRGICTMISVNPSGVIQDFIFFCDAVASWINPKDDLRDMFCKILHGFKNQVGDENWRRFSDQFPLPLKERLAAFYGV
